Binding data for two substances are collected here from PMC11347664, “KHSRP ameliorates acute liver failure by regulating pre-mRNA splicing through its interaction with SF3B1” (Cell Death & Disease, 2024).

Chains of the proteins cited; added tags and fusions are not shown.
UniProt O75533: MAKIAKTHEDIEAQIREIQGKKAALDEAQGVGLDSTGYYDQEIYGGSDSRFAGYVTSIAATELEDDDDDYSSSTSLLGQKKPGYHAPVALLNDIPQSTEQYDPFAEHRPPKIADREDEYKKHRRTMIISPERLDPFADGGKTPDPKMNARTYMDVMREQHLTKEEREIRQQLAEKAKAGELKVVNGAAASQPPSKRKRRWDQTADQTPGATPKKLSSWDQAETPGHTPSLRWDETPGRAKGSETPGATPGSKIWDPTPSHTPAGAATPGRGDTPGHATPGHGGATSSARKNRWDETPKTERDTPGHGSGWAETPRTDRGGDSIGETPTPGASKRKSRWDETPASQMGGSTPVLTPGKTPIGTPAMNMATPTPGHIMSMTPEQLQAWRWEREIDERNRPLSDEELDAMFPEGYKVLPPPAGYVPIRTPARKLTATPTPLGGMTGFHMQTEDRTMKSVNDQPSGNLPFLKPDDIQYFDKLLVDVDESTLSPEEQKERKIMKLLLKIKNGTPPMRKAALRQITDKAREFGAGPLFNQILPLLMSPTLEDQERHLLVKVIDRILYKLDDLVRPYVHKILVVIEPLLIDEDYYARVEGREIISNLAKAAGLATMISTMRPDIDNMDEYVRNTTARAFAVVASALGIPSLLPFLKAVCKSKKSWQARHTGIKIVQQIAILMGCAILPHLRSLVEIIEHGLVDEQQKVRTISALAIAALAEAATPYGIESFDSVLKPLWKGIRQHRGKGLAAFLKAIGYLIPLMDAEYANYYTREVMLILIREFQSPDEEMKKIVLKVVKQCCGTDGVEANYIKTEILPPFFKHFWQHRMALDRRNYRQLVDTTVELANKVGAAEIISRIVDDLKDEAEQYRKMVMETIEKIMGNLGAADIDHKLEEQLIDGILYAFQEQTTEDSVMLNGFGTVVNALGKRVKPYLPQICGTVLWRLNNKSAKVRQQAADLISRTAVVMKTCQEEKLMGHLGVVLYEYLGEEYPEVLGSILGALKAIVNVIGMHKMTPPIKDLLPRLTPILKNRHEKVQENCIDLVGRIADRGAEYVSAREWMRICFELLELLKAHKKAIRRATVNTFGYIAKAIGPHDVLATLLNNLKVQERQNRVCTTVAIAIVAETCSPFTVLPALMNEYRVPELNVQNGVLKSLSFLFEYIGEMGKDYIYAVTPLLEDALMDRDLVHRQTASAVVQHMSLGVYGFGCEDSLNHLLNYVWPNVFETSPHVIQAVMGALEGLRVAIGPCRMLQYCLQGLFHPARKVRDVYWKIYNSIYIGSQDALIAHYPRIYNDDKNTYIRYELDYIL
UniProt Q15393: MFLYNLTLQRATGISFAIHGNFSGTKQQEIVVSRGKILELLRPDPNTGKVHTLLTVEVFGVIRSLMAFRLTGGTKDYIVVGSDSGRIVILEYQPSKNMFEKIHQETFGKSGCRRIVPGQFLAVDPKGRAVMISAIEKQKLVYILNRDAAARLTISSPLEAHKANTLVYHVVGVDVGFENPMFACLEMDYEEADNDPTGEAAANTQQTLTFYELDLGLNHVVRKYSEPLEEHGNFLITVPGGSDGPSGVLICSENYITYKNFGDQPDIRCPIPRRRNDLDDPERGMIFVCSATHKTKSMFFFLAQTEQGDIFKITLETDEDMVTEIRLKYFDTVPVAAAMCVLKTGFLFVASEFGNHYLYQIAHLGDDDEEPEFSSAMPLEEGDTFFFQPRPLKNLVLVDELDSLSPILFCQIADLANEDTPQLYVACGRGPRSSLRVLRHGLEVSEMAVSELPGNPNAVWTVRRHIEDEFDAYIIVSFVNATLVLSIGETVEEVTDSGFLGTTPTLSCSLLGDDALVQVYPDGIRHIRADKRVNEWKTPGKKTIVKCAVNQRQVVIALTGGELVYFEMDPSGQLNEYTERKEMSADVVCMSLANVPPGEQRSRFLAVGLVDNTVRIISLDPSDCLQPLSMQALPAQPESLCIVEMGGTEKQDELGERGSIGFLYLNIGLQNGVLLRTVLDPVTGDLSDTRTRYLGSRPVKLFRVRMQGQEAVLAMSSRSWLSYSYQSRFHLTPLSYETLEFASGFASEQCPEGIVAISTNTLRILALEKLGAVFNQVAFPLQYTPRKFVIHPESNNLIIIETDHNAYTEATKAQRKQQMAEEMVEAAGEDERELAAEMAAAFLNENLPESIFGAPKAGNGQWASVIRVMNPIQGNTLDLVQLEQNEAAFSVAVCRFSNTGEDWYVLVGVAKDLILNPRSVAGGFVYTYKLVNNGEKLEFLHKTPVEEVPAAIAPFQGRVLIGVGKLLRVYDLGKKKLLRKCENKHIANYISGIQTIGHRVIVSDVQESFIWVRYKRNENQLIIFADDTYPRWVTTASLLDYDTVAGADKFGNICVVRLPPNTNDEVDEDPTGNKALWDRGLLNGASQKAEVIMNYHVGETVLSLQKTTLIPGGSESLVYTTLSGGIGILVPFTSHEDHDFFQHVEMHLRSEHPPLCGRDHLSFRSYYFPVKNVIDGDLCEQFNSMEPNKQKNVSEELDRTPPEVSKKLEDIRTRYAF

No constants are given. Whether binding was seen depends on the method and setting. In cells and extracts the contact can be indirect. These calls come from enrichment with a bait or labelling near it, and not all partners need be listed. Where a sequence is shown, tags or fusion partners need not be part of it.

This test addresses T1, Flag-KHSRP (pHAGE-KHSRP-FL, complete CDS of KHSRP) (UniProt Q92945).
T1 sequence: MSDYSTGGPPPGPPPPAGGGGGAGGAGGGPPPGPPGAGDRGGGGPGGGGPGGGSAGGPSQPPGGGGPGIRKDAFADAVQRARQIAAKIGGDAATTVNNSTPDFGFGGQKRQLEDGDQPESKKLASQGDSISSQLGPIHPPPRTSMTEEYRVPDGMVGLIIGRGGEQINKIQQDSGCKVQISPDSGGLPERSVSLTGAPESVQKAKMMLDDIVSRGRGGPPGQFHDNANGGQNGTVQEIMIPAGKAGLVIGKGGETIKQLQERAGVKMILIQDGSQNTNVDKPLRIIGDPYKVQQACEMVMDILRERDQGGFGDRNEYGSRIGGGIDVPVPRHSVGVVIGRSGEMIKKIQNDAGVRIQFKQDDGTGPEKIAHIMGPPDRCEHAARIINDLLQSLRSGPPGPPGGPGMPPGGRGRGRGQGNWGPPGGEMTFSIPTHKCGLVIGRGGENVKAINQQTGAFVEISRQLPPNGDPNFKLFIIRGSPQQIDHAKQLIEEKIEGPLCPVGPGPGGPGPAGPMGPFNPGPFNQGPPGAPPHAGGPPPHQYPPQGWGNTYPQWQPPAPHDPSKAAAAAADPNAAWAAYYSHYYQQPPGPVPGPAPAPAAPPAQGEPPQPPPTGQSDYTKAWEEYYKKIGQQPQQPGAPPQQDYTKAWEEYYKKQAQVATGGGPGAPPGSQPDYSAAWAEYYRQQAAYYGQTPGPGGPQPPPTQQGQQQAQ
Nature of the test: affinity purification with mass spectrometry; immunoprecipitation with anti-KHSRP (A302-021A, BETHYL) and A/G agarose beads from stable HL7702 cells expressing pHAGE-KHSRP-FL, overnight at 4 °C; candidates at least twofold enriched over IgG.

Consider “splicing factor 3b subunit 1 (from UniProt O75533 1-1304)”, for which the binding entry is on record as “binds”.

Consider SF3B3 (from UniProt Q15393 1-1217), for which the binding entry is on record as “binds”.
